{"source": "patent US12484600B2", "about": "“Expanded foam for delivery of functional ingredients” (Boehringer Ingelheim Vetmedica GmbH, priority 2020, dated 2025)", "test_system": "Staphylococcus aureus NCTC 8325-4", "test": "Growth in LB broth flask culture with or without calcium chloride supplementation (visual growth, terminal plate count)", "format": "cell-based", "conditions": "0.5% Calcium", "experimental": "The test organism is Staphylococcus aureus NCTC 8325-4 as described in the methods and flask cultures are 100 ml of Luria-Bertani broth (LB broth) in 250 ml Erlenmeyer flasks. LB broth is used instead of brain Heart Infusion because it is more defined and limited in mineral content.\nA standard inoculum is grown as described in the methods section and adjusted to a viable cell count of […] by dilution in sterile saline, 0.1 ml of this is used to aseptically inoculate 100 ml volumes of test media—the inoculum being […] in the test flask.\nTo determine the Minimum Inhibitory effect of hexametaphosphate a series of flasks with 100 ml of LB broth were each supplemented with concentrations of hexametaphosphate ranging from 0% W/W to 1% W/W, each flask was inoculated with a standard inoculum to achieve 1×10^3 viable bacterial in the flask, the flasks were incubated at 37° C. in a rotary incubator for 24 hours and evaluated visually for growth at that time.\nFollowing visual evaluation, 0.5% sterile calcium chloride was added to all flasks and incubation continued for a further 24 hours.", "note": "For at least one compound, name, drawing or mass did not settle the structure.", "data": [{"smiles": "[Ca+2].[Cl-].[Cl-]", "note": "[Calcium, calcium chloride]", "values": [{"measurement": "Growth 12 h", "result": "+"}, {"measurement": "Growth 24 h", "result": "+"}]}]}
